Measured values published in patent US20210137898A1, “METHODS TO TREAT GLIOMAS USING A STAT3 INHIBITOR” (Mayo Foundation for Medical Education and Research, priority 2017, published 2021).
At least one compound was matched to its structure with a doubt left.

System: H3K27me3 in H3K27M tumor cells (Peds8)
Experiment: Global H3K27 trimethylation in H3K27M tumor cells after treatment
Type: cell-based
Conditions: vs no treatment (NT), FIG. 6B-D
Method: The role of STAT3 in midline H3K27M tumors (e.g., diffuse midline H3K27M tumors) has not been studied. To further validate STAT3 signaling as a potential drug target in these patients, it was determined if STAT3 is required for proliferation of H3K27M cells. […] Because of the critical dependence of STAT3 signaling in H3K27M tumor cells, the activity of STAT3 (pSTAT3) would be elevated in patients with DIPG tumors. Using treatment naive surgical samples from DIPG patients, an increase (>10-fold) in pSTAT3 levels was observed as compared to non-neoplastic brain tissues from other surgeries (FIG. 5A). Using large cohorts from published data sets, it was also seen a >2-fold increase in STAT3 mRNA expression (RNA-seq) in DIPG patients compared to normal brainy (FIG. 5B). In addition, pSTAT3 expression levels were increased in H3K27M cell lines compared to WT lines in both pediatric and adult high-grade gliomas (FIG. 6). […] The data presented supports a method of treating glioma with H3K27M mutation by restoration of methylation pattern. In one example, the methylation pattern is restored by a H3K27me3 demethylase inhibitor (e.g., GSK-J4).

N#CC[C@H](C1CCCC1)n1cc(-c2ncnc3[nH]ccc23)cn1 [Ruxolitinib]
H3K27me3 level: increases H3K27me3
